This note sets out measurements from PMC11879137.

Chains of the proteins cited; added tags and fusions are not shown. Lines headed by an entry give the natural chain unless they say otherwise; changes in a name come on top.
UniProt Q9UKI8: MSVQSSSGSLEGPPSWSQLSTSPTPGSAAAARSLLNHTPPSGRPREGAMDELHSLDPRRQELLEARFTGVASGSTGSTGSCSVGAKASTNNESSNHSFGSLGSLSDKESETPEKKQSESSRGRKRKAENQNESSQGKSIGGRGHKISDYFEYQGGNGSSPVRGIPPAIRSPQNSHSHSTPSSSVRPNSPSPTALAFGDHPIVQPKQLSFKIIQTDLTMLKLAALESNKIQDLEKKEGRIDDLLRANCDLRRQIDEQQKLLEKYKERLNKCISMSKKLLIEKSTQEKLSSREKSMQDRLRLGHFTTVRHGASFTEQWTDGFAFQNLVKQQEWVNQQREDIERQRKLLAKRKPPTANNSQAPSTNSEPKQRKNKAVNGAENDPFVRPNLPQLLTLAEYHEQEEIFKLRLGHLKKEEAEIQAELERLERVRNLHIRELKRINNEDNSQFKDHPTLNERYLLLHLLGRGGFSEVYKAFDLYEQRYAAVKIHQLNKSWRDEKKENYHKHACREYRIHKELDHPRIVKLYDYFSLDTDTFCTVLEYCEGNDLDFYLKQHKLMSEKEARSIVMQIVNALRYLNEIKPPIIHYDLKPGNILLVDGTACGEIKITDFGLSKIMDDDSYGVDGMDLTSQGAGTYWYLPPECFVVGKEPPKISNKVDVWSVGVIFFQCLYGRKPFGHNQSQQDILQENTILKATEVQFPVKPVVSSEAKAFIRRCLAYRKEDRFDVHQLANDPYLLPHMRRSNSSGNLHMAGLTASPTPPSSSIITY
UniProt P12004: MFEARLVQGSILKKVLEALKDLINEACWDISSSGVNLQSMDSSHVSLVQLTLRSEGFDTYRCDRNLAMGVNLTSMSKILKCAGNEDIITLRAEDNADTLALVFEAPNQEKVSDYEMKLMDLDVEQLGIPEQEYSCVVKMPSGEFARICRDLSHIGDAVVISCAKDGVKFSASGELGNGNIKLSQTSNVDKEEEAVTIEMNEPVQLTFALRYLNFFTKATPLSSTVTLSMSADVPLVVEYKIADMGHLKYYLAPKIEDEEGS

Results are given in words; binding and its absence hold for the method and conditions named. In cells and extracts the contact can be indirect. Binding can be weak; no strength is given.

This experiment concerns the target TLK1 N-terminal 9S/T to A mutant (human) (UniProt Q9UKI8). Kind of experiment: pull-down; HEK293T transfected with SFB-tagged TLK1 or TLK2 constructs; streptavidin beads; PCNA detected by Western blot.

Regarding PCNA (from UniProt P12004 1-261), the binding entry is “binds”.
